According to PubChem BioAssay (EPA / NIEHS):
For part of these data: The hits were mostly taken out for another list; the other results follow. The entries are a selection whose mix differs from that of the whole data set. The source made the active and inactive calls. Rule for the calls: active = hit-call score of the fitted dose curve at least 0.9, where 1 is the maximum; inactive = score below 0.9.

By UniProt entry, the sequences of proteins in these tests, tags left out.
UniProt P33261, whole entry, looked up: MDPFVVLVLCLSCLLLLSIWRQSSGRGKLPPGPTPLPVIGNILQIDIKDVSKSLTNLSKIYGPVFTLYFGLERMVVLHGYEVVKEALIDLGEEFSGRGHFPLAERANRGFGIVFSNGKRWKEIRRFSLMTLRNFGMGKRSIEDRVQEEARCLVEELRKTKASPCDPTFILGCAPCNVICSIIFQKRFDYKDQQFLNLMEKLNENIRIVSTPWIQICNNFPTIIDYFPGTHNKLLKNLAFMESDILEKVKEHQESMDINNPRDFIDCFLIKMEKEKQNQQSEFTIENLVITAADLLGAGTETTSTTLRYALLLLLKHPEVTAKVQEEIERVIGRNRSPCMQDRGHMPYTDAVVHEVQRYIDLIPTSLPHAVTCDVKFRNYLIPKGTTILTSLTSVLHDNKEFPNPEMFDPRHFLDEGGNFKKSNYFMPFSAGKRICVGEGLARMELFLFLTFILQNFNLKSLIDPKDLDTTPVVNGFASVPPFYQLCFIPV

Columns and labels:
[1] = read-out: ATP-citrate lyase (ACLY), ACLY (gene 47); experiment: LTEA_HepaRG_ACLY: Life Technologies and Expression Analysis (LTEA) Assay for ATP-citrate lyase (ACLY) using HepaRG (AID 2283466); details: actives raise or lower the signal; mRNA level, 48 h
In short: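 Differentiated HepaRG cells exposed 48 h in serum-free induction medium to eight half-log concentrations up to 100 uM in 0.5% DMSO, duplicates. Transcript measured by Fluidigm TaqMan qRT-PCR, normalized to ACTB, GAPDH, POLR2A; bidirectional fit versus DMSO.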

[2] = read-out: Apolipoprotein A-V (APOA5) gene, APOA5 (gene 116519); experiment: LTEA_HepaRG_APOA5: Life Technologies and Expression Analysis (LTEA) Assay for Apolipoprotein A-V (APOA5) gene using HepaRG (AID 2283474); details: actives raise or lower the signal; mRNA level, 48 h
In short: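 Concentration-response of APOA5 expression in HepaRG: eight half-log doses to 100 uM, 48 h, qRT-PCR normalized to ACTB/GAPDH/POLR2A, bidirectional fitting with 0.5% DMSO as baseline.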

[3] = read-out: Cytochrome P450 2C19 (Homo sapiens) (UniProt P33261); experiment: LTEA_HepaRG_CYP2C19: Life Technologies and Expression Analysis (LTEA) Assay for CYP2C19 using HepaRG (AID 2283482); details: actives raise or lower the signal; mRNA level, 48 h
In short: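 Endpoint: CYP2C19 mRNA change, bidirectional fit vs 0.5% DMSO. Cells: HepaRG, 48 h exposure, eight-point series topping at 100 uM. Quantitation: qRT-PCR normalized to ACTB, GAPDH, POLR2A.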

[4] = read-out: ABC Transporter (ABCC2), ABCC2 (gene 1244); experiment: LTEA_HepaRG_ABCC2: Life Technologies and Expression Analysis (LTEA) Assay for ABC Transporter (ABCC2) using HepaRG (AID 2283464); details: actives raise or lower the signal; mRNA level, 48 h
In short: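 After plating and 48 h culture, HepaRG medium is replaced with serum-free induction medium and chemicals are added (8 concentrations, max 100 uM, 0.5% DMSO) for 48 h. Total RNA then undergoes qRT-PCR for ABCC2 with housekeeping normalization.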

[5] = read-out: succinate dehydrogenase complex iron sulfur subunit B (SDHB), SDHB (gene 6390); experiment: LTEA_HepaRG_SDHB: Life Technologies and Expression Analysis (LTEA) Assay for succinate dehydrogenase complex iron sulfur subunit B (SDHB) using HepaRG (AID 2283528); details: actives raise or lower the signal; mRNA level, 48 h
In short: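 A human HepaRG culture in serum-free induction medium received test chemicals for 48 h over an eight-point range capped at 100 uM. SDHB expression change was quantified by qRT-PCR.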

[6] = CEETOX_H295R_PROG_noMTC: CeeTox H295R High-throughput Steroidogenesis Assay for Progesterone (PROG), maximum tolerated concentration (MTC) filtered results only (AID 2283920); details: actives raise or lower the signal
In short: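 H295R cells, prestimulated 48 h with 10 uM forskolin, exposed 48 h to chemical in 0.1% DMSO. Medium progesterone quantified by MTBE extraction and HPLC-MS/MS; bidirectional fit versus DMSO, concentrations not MTT-filtered.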

[7] = CEETOX_H295R_CORTISOL: CeeTox H295R High-throughput Steroidogenesis Assay for Cortisol (AID 2283438); details: actives raise or lower the signal;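 note: cortisol secreted into medium quantified by LC-MS/MS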
In short: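 Human adrenocortical H295R cells (passage ≤10) received test chemicals for 48 h after forskolin priming. Secreted cortisol was measured by LC-MS/MS.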

[8] = CEETOX_H295R_ESTRADIOL: CeeTox H295R High-throughput Steroidogenesis Assay for Estradiol (AID 2283440); details: actives raise or lower the signal;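 note: estradiol secreted into medium quantified by LC-MS/MS after dansyl derivatisation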
In short: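 Readout is estradiol in conditioned medium, quantified by reverse-phase HPLC-MS/MS against a 7-point standard curve. Cells: H295R, forskolin-stimulated, then dosed 48 h in 0.1% DMSO; activity fitted in both directions relative to DMSO.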

[9] = CEETOX_H295R_ESTRONE: CeeTox H295R High-throughput Steroidogenesis Assay for Estrone (AID 2283441); details: actives raise or lower the signal;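 note: estrone secreted into medium measured by LC-MS/MS after dansyl derivatization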
In short: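 H295R cells; 48 h forskolin (10 uM) prestimulation; 48 h compound exposure, 0.1% DMSO final. Medium estrone: MTBE extraction, dansyl derivatization, HPLC-MS/MS. Bidirectional fit vs DMSO.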

[10] = read-out: Forkhead box O3 (FOXO3), FOXO3 (gene 2309); experiment: LTEA_HepaRG_FOXO3: Life Technologies and Expression Analysis (LTEA) Assay for Forkhead box O3 (FOXO3) using HepaRG (AID 2283459); details: actives raise or lower the signal; mRNA level, 48 h
In short: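 Differentiated human HepaRG cells, 48 h post-plating, exposed in duplicate for 48 h in serum-free induction medium; 8-point half-log series from 100 uM in 0.5% DMSO. FOXO3 mRNA by TaqMan qRT-PCR, normalized to ACTB/GAPDH/POLR2A; bidirectional fit versus DMSO.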

[11] = read-out: Bcl-2 (BID) gene, BID (gene 637); experiment: LTEA_HepaRG_BID: Life Technologies and Expression Analysis (LTEA) Assay for Bcl-2 (BID) gene using HepaRG (AID 2283476); details: actives raise or lower the signal; mRNA level, 48 h
In short: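 Gain or loss of BID expression is fitted relative to 0.5% DMSO vehicle. Human HepaRG liver cells received a 48 h chemical exposure over an eight-point concentration range.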

TIMP1, TIMP1 (gene 7076) = experiment: LTEA_HepaRG_TIMP1: Life Technologies and Expression Analysis (LTEA) Assay for TIMP1 using HepaRG (AID 2283534); details: actives raise or lower the signal; mRNA level, 48 h;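 note: TaqMan qRT-PCR signal normalized to ACTB GAPDH and POLR2A housekeeping genes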
In short: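 TIMP1 induction or repression in HepaRG cells after 48 h chemical exposure (eight concentrations, highest 100 uM), assessed by normalized qRT-PCR with bidirectional fitting to DMSO controls.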

[12] = read-out: X-box binding protein 1 (XBP1), XBP1 (gene 7494); experiment: LTEA_HepaRG_XBP1: Life Technologies and Expression Analysis (LTEA) Assay for X-box binding protein 1 (XBP1) using HepaRG (AID 2283540); details: actives raise or lower the signal; mRNA level, 48 h
In short: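 Eight concentrations (half-log, highest 100 uM, 0.5% DMSO) tested in duplicate on HepaRG cells over 48 h in serum-free induction medium; qRT-PCR of XBP1 normalised to ACTB, GAPDH, POLR2A.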

[13] = read-out: Bcl-2 (BAX) gene, BAX (gene 581); experiment: LTEA_HepaRG_BAX: Life Technologies and Expression Analysis (LTEA) Assay for Bcl-2 (BAX) gene using HepaRG (AID 2283470); details: actives raise or lower the signal; mRNA level, 48 h
In short: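 Concentration-response endpoint fitted in both directions relative to 0.5% DMSO vehicle. Human HepaRG cultures receive test chemicals for 48 h at up to 100 uM; BAX mRNA is quantified by qRT-PCR against housekeeping genes.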

For `C[Si]1(C)O[Si](C)(C)O[Si](C)(C)O[Si](C)(C)O1`, the outcome [1] was “inactive”.
With `O=c1[nH]c2ccc(S(=O)CCN3CCC(Cc4ccc(F)cc4)CC3)cc2o1` (stereo not given) the AC50 [2] was active: 64.2 µM and the AC50 [3] was active: 76.8 µM.
In the case of `O=C(OCCCCCOC(=O)c1ccccc1)c1ccccc1`, the outcome [4] is reported as “inactive”, the outcome [5] is reported as “inactive” and the outcome [6] is reported as “inactive”.
With `Oc1ccccc1O` the outcome [7] was “inactive”.
For `NC(=O)N(O)[C@@H]1C=C[C@H](Oc2cccc(Oc3ccc(F)cc3)c2)C1`, the outcome [7] was “inactive”, the outcome [8] was “inactive” and the outcome [9] was “inactive”.
In the case of `CC(C)NCC(O)c1ccc(O)c(O)c1` (stereo not given), the AC50 [10] is reported as active: 0.205 µM, the outcome [11] is reported as “inactive” and the outcome (TIMP1, TIMP1 (gene 7076)) is reported as “inactive”. For the same compound, the outcome [12] was “inactive”.
With `CC(O)CN(CCN(CC(C)O)CC(C)O)CC(C)O` (stereo not given) the outcome [13] was “inactive”.
